Data reported in publication PMC5477029.
Results are given in words; binding and its absence hold for the method and conditions named. For some assays here: Binding seen in cells or lysates may run through a third protein. Some entries that bind do so weakly or less than the wild type.

By UniProt entry, the sequences of proteins in these tests, tags left out.
UniProt Q9P2J5: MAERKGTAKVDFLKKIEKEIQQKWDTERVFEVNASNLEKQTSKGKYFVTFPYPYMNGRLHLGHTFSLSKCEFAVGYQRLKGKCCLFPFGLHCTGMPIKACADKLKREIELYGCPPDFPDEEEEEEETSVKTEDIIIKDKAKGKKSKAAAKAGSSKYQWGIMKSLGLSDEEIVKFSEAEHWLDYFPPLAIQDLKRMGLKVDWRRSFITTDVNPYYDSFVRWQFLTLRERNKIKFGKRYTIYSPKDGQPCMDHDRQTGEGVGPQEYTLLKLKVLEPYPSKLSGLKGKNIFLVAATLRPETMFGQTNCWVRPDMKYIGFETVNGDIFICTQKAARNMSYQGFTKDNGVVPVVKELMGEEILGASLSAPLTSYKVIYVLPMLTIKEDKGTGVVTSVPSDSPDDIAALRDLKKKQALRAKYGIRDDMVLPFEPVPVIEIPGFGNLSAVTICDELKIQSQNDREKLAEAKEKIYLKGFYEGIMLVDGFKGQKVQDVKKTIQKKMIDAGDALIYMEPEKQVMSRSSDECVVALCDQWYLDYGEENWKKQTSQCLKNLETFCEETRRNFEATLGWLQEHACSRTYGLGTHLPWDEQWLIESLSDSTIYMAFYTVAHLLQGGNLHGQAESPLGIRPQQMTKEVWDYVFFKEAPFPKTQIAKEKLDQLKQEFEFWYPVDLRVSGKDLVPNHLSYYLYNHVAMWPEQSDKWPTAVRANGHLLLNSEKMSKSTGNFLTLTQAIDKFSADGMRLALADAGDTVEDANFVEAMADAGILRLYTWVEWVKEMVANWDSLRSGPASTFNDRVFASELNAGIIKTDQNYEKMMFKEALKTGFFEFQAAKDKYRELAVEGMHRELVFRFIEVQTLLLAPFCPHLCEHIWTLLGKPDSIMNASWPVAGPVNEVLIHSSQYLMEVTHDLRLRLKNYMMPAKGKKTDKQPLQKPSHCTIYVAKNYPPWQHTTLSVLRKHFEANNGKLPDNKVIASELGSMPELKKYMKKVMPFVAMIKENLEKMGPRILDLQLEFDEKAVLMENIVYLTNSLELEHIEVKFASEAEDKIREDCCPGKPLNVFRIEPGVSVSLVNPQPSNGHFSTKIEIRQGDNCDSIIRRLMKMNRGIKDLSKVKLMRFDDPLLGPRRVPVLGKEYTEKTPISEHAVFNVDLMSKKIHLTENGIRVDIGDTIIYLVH
UniProt Q9NQL2: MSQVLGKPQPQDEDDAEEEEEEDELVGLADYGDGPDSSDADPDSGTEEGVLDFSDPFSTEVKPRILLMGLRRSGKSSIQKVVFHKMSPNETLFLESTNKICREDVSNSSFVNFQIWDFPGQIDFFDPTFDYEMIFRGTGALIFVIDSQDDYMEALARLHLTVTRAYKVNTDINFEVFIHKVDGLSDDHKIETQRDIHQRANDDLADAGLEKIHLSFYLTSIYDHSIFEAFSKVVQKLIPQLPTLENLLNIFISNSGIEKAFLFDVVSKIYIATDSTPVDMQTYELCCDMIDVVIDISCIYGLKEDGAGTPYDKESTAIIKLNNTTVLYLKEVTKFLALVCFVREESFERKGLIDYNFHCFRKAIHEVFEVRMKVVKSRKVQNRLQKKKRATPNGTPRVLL

Tests used:
[1] = molecular target: leucyl-tRNA synthetase (purified LRS) (human) (UniProt Q9P2J5); test: ELISA; purified LRS coated on 96-well plates; GST-RagD (roughly purified on a glutathione column) added together with each β-turn mimetic compound for 3 h; bound RagD-GST detected with anti-GST antibody and enzyme-conjugated secondary antibody; both purified
[2] = molecular target: CFP (Cyan Fluorescent Protein)-fused LRS (human) (UniProt Q9P2J5); test: FRET or BRET; live HEK293T cells co-transfected with LRS-CFP and RagD-YFP; 40 μM 5c{3,9} or 5a{2,9} or DMSO added after 30 min; images at 10 min intervals over 3.5 h in single cells; CFP/CFP, CFP/YFP, YFP/YFP filter sets

binding [1]	binding [2]	Substance
binds		GST (Glutathione S-transferase)-tagged RagD (from UniProt Q9NQL2 1-400)
	binds	YFP (Yellow Fluorescent Protein)-fused RagD (from UniProt Q9NQL2 1-400)
